PubChem BioAssay AID1259424 | University of Nebraska Medical Center, 2018
The whole screen tested about 14,000 reagents; shown is a random part of them. 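Higher correlation or smaller distance means closer resemblance to KSR1 loss; control wells, including KSR1 knockdowns, recur on many plates.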 Some reagents were tested in more than one well and are listed for each. Not all columns of the deposit are shown. No sequences are given here. Not given: the time to read-out.

- Screen: 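Rank knockdowns across the genome by resemblance to the KSR1 depletion profile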 (primary screen)
- Cells: human HCT116 colon cancer cells
- Reagent: siRNA pool against human genes, 50 nM
- Measurement: 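Six signature mRNAs by branched-DNA multiplex assay, scaled to two housekeeping genes and non-targeting median, log2; matched to mean KSR1 knockdown profile by Pearson correlation and euclidean distance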
- Scale: mean correlation with KSR1 profile: higher = expression change more like KSR1 knockdown

gene | PubChem SID | mean correlation with KSR1 profile
ENPP4 (ectonucleotide pyrophosphatase/phosphodiesterase 4) | SID363999208 | -0.177
SYNCRIP (synaptotagmin binding cytoplasmic RNA interacting protein) | SID363997188 | 0.816
MUL1 (mitochondrial E3 ubiquitin protein ligase 1) | SID364002860 | 0.675
STIL (STIL centriolar assembly protein) | SID363994184 | -0.225
ZNF496 (zinc finger protein 496) | SID364004152 | 0.664
ROM1 (retinal outer segment membrane protein 1) | SID363991659 | 0.66
DYRK3 (dual specificity tyrosine phosphorylation regulated kinase 3) | SID363994662 | -0.259
TIMP2 (TIMP metallopeptidase inhibitor 2) | SID363994376 | -0.31
CTF1 (cardiotrophin 1) | SID363992610 | -0.123
TM2D1 (TM2 domain containing 1) | SID364003747 | 0.747
TRPC4 | SID363999930 | -0.222
ICOS (inducible T cell costimulator) | SID363998041 | 0.0841
FGG (fibrinogen gamma chain) | SID363991832 | 0.373
FKBP7 (FKBP prolyl isomerase 7) | SID363999875 | -0.452
NCR2 (natural cytotoxicity triggering receptor 2) | SID363995781 | -0.461
ADAM28 (ADAM metallopeptidase domain 28) | SID363998700 | 0.0732
GPR119 (G protein-coupled receptor 119) | SID364004915 | 0.523
GPR119 (G protein-coupled receptor 119) | SID364004915 | 0.432
SSBP1 (single stranded DNA binding protein 1) | SID363994283 | 0.72
NAIP (NLR family apoptosis inhibitory protein) | SID363995508 | -0.846
MORN1 (MORN repeat containing 1) | SID364003110 | 0.714
DEF8 (differentially expressed in FDCP 8 homolog) | SID364005015 | -0.349
IGF2-AS (IGF2 antisense RNA) | SID364000093 | -0.136
ADGRL3 (adhesion G protein-coupled receptor L3) | SID363999374 | 0.829
CNIH1 (cornichon family member 1) | SID363996656 | -0.448
SORBS2 (sorbin and SH3 domain containing 2) | SID363994683 | 0.345
SDHAF3 (succinate dehydrogenase complex assembly factor 3) | SID364001539 | 0.437
SDHC (succinate dehydrogenase complex subunit C) | SID363994151 | 0.431
RGCC (regulator of cell cycle) | SID363998583 | -0.251
AP1B1 (adaptor related protein complex 1 subunit beta 1) | SID363992420 | -0.276
BHLHE40 (basic helix-loop-helix family member e40) | SID363994745 | 0.277
MRPL15 (mitochondrial ribosomal protein L15) | SID363998632 | -0.527
FZD1 (frizzled class receptor 1) | SID363994601 | 0.784
OSBPL10 (oxysterol binding protein like 10) | SID364000525 | -0.252
TRIM52 (tripartite motif containing 52) | SID364004158 | 0.212
ZNF692 (zinc finger protein 692) | SID364000595 | 0.547
FEN1 (flap structure-specific endonuclease 1) | SID363995121 | -0.169
UBE2A (ubiquitin conjugating enzyme E2 A) | SID363994452 | 0.28
GCGR (glucagon receptor) | SID363991496 | 0.778
EPB41L1 (erythrocyte membrane protein band 4.1 like 1) | SID363998100 | 0.17
IMP3 (IMP U3 small nucleolar ribonucleoprotein 3) | SID364000943 | 0.63
ARHGAP25 (Rho GTPase activating protein 25) | SID363999169 | -0.2
RCOR1 (REST corepressor 1) | SID363999333 | 0.596
ATP1A4 (ATPase Na+/K+ transporting subunit alpha 4) | SID364004626 | -0.566
TAS2R41 (taste 2 receptor member 41) | SID364004890 | 0.301
CSTB (cystatin B) | SID363991437 | -0.463
GGCX (gamma-glutamyl carboxylase) | SID363992110 | 0.474
SEC63 (SEC63 protein translocation regulator) | SID363997910 | -0.377
CFI (complement factor I) | SID363991540 | 0.188
PRICKLE3 (prickle planar cell polarity protein 3) | SID363996980 | 0.734

3 consecutive records from above, for reference:
gene | PubChem SID | mean correlation with KSR1 profile
NAIP (NLR family apoptosis inhibitory protein) | SID363995508 | -0.846
MORN1 (MORN repeat containing 1) | SID364003110 | 0.714
DEF8 (differentially expressed in FDCP 8 homolog) | SID364005015 | -0.349
